Source: the supplement of paper PMC6411743
± gives the standard deviation of the averaged measurements. The list shows a part of the results, in another mix than the full data.

Amino acid sequences for entries named in this document (tags omitted). A change or cut given only in a name is not applied to a line headed by its entry.
UniProt Q12959, whole entry, looked up: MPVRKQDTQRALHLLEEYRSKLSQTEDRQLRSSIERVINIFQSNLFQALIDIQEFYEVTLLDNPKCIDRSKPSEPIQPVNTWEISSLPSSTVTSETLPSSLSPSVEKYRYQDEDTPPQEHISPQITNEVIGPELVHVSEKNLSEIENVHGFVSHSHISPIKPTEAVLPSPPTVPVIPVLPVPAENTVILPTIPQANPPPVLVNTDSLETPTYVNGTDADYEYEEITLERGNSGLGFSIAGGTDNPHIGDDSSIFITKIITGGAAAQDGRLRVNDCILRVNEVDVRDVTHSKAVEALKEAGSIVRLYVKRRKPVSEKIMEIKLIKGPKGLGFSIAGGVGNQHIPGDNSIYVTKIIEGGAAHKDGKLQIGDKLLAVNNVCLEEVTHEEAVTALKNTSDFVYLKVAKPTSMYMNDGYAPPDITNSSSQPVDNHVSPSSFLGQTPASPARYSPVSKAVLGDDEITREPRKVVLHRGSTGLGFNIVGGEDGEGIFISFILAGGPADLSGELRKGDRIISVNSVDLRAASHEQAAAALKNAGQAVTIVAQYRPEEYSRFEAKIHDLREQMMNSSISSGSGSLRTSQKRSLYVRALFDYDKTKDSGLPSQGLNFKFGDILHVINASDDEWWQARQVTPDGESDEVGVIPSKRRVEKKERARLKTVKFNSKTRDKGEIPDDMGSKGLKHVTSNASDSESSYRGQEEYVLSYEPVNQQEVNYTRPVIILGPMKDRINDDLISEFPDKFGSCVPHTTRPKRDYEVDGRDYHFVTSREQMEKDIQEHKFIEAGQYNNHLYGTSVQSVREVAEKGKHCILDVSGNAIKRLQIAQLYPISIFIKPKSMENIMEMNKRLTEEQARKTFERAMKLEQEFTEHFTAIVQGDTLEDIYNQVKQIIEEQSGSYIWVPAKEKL
UniProt Q13123, whole entry: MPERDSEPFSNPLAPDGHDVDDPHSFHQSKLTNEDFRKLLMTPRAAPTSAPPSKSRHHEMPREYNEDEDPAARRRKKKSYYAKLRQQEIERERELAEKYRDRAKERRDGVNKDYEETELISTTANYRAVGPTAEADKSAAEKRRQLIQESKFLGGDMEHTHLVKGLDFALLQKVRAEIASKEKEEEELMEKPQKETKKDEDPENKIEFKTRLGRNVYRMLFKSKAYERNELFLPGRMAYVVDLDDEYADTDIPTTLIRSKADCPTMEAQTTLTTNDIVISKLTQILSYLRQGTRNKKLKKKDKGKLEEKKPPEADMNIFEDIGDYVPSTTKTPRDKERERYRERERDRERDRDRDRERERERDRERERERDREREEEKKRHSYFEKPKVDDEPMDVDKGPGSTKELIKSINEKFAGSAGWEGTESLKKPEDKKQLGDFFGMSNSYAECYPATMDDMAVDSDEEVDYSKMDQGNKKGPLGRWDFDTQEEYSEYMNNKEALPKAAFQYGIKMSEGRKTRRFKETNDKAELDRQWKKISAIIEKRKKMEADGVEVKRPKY
UniProt Q13049: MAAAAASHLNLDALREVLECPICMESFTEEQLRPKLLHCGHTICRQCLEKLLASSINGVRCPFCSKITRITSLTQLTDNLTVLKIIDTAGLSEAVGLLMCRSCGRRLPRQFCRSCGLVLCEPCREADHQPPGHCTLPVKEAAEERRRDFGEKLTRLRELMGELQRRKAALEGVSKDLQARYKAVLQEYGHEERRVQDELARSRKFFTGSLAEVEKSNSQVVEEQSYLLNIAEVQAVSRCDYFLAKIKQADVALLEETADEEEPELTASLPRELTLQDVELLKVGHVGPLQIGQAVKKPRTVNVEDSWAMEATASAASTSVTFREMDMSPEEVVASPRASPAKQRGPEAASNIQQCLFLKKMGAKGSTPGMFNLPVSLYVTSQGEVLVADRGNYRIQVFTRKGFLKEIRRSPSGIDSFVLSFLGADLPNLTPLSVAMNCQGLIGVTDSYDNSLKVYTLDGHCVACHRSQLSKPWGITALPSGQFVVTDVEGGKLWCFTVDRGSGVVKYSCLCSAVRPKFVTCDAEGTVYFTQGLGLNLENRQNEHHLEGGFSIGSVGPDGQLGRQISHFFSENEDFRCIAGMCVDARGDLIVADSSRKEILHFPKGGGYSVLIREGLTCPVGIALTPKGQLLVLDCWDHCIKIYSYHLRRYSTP
UniProt Q14142: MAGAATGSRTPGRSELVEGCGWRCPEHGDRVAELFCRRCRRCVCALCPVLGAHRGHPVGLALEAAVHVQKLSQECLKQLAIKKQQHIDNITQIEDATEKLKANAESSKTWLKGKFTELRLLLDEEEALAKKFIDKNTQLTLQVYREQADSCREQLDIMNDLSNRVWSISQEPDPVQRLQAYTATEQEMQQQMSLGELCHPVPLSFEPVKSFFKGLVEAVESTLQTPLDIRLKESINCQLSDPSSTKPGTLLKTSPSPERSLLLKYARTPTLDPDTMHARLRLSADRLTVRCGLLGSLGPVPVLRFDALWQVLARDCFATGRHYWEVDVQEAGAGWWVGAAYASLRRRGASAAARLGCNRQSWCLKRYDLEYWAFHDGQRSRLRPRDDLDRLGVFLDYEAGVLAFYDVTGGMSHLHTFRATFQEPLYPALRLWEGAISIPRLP
UniProt Q13547, whole entry: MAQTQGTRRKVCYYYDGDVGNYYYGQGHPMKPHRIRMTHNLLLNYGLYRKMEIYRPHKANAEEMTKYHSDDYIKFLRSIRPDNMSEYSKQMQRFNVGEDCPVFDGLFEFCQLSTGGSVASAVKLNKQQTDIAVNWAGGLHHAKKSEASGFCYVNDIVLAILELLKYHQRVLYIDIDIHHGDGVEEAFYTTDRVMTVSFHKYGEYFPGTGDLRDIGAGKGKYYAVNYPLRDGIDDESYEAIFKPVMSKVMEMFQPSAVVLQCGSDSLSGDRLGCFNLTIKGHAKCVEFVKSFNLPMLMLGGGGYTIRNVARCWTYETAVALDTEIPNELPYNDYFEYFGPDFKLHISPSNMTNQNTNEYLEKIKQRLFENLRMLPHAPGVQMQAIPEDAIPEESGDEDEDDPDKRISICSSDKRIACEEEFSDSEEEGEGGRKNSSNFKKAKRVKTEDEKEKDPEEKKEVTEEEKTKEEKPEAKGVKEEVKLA
UniProt Q12792, whole entry: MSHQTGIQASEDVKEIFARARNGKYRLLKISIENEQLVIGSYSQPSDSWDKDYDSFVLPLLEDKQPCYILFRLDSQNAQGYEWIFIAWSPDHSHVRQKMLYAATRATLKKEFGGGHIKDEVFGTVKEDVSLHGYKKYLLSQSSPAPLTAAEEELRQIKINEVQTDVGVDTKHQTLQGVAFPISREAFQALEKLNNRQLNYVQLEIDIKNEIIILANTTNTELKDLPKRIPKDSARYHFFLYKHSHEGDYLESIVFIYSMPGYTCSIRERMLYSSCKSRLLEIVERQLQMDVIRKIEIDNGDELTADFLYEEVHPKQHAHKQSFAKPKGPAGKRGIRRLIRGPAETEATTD
UniProt Q13395: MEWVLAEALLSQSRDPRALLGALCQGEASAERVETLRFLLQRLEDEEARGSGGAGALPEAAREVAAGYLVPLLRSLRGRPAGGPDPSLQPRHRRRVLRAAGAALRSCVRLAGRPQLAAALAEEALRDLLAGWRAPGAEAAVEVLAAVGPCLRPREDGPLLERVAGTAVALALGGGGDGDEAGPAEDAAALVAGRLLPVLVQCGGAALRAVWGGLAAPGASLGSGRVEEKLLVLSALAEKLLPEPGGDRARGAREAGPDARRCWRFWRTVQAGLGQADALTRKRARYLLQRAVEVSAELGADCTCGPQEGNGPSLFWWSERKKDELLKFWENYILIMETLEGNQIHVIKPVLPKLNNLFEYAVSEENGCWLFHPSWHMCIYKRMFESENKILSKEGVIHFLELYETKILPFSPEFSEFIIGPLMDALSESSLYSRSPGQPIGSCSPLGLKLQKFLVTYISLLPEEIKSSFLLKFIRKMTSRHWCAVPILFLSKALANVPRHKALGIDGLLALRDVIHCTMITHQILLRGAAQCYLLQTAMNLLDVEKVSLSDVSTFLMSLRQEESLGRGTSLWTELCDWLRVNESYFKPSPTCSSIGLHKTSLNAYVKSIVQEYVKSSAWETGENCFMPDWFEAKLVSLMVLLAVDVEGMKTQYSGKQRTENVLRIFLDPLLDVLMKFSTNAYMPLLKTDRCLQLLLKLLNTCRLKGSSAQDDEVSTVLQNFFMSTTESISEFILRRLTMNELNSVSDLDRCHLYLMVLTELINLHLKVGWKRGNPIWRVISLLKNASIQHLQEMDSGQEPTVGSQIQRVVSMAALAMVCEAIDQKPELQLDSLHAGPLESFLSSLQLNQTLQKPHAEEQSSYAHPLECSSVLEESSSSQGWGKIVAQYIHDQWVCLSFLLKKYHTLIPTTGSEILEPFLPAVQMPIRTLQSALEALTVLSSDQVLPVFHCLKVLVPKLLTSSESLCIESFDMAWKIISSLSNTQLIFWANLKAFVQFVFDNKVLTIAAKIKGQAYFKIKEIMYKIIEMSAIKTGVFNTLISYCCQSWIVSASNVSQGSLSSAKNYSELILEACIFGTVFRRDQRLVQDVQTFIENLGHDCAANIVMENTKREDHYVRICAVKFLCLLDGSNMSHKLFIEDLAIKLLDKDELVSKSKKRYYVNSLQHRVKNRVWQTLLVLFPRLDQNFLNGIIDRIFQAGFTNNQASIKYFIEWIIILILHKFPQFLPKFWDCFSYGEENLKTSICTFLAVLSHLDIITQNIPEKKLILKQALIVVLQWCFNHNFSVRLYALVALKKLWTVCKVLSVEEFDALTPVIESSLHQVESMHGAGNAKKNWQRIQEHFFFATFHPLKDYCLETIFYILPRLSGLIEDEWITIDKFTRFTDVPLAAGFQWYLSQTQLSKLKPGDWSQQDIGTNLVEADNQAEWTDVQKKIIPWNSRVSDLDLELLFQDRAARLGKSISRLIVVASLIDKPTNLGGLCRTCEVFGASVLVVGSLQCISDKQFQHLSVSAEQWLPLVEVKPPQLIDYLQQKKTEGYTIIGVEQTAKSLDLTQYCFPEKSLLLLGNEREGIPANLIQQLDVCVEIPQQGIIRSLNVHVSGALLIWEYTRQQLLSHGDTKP
UniProt Q08380: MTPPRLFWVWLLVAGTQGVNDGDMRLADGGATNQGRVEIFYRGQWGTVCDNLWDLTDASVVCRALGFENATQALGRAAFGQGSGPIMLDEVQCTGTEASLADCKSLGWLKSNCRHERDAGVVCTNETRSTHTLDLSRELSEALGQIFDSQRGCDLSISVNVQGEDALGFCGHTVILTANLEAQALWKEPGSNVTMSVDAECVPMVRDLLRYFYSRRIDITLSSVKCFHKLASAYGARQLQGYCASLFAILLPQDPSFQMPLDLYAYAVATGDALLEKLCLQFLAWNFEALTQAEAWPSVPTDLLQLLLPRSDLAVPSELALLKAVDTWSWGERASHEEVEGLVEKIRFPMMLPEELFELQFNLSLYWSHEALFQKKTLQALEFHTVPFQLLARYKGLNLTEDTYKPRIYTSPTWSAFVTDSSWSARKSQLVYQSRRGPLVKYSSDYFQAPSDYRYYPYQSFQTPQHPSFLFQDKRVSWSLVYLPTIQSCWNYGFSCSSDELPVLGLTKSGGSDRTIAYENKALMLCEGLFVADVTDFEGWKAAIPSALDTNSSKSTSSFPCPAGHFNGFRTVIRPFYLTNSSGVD
UniProt Q13509, whole entry: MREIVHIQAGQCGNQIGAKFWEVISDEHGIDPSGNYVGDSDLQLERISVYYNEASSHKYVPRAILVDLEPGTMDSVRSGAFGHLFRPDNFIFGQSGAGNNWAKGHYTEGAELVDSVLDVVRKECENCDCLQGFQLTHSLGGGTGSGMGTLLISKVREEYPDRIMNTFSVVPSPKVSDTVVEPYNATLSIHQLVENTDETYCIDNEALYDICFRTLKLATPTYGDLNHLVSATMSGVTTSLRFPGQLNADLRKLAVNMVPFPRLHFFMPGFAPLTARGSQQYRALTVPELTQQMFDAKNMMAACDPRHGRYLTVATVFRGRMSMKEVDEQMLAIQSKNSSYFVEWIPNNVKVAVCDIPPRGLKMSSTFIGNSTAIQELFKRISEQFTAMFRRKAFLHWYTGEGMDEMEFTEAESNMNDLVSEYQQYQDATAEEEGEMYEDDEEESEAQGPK
UniProt Q13325: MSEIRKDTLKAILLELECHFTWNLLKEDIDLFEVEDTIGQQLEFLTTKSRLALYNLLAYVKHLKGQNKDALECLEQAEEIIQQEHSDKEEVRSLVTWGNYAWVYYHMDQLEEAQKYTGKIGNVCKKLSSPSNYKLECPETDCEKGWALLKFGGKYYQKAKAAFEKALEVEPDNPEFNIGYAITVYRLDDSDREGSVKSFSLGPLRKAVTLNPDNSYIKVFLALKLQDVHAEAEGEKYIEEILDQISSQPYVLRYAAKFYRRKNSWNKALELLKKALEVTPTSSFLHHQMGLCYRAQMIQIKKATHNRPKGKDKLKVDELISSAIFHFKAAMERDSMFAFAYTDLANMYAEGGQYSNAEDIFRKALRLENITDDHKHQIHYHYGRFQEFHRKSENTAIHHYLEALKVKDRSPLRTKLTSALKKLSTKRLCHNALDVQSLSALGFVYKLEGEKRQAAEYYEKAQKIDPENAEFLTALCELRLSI

Compound: Nc1ncnc2c1ncn2[C@@H]1O[C@H](COP(=O)(O)OP(=O)(O)NP(=O)(O)O)[C@@H](O)[C@H]1O [adenylyl imidodiphosphate]
Test: NP40-soluble protein abundance relative to vehicle (solubility fold change) (ratio); higher = more soluble protein in presence of AMP-PNP
Procedure, shortened: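 Crude Jurkat lysate, prepared by Dounce homogenisation, was exposed to eight concentrations from 0.1 to 10 mM for 10 min at room temperature and then 3 min at 37 °C. Solubilisation used 0.8% NP40 with benzonase for 60 min at 4 °C, followed by ultracentrifugation and TMT labelling of the supernatant for LC-MS/MS. After vsn normalisation of intensities, each value is the fold change against the detergent-processed vehicle within each replicate, across three independent experiments.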

Target	NP40-soluble protein abundance (concentration: 1mM)	NP40-soluble protein abundance (concentration: 2mM)	NP40-soluble protein abundance (concentration: 4mM)	NP40-soluble protein abundance (concentration: 6mM)	NP40-soluble protein abundance (concentration: 8mM)	NP40-soluble protein abundance (concentration: 10mM)
UniProt Q13188	1.01 ± 0.035	1.02 ± 0.02	1.02 ± 0.019	0.979 ± 0.051	0.965 ± 0.032	0.968 ± 0.036
UniProt Q12959-3|A0A0C4DFT3|Q12959-4	0.991 ± 0.05	0.992 ± 0.029	0.995 ± 0.014	0.961 ± 0.016	0.948 ± 0.021	0.986 ± 0.033
LCP2 (UniProt Q13094)	1.02 ± 0.027	1.05 ± 0.053	0.992 ± 0.034	0.98 ± 0.0097	0.955 ± 0.042	0.947 ± 0.061
UniProt Q12873 and related entries	1 ± 0.048	1.05 ± 0.076	1.06 ± 0.083	1.14 ± 0.032	1.16 ± 0.061	1.21 ± 0.072
STX4 (UniProt Q12846)	0.989 ± 0.036	1.04 ± 0.038	1 ± 0.053	1 ± 0.023	0.984 ± 0.031	0.983 ± 0.028
UniProt Q13163 and related entries	0.968 ± 0.026	1.01 ± 0.041	1.02 ± 0.057	0.958 ± 0.049	0.933 ± 0.019	0.941 ± 0.022
UniProt Q14004 and related entries	1.04 ± 0.012	1.08 ± 0.016	1.09 ± 0.021	1.08 ± 0.033	1.05 ± 0.026	1.103 ± 0.0043
FHL3 (UniProt Q13643)	0.994 ± 0.017	0.988 ± 0.045	0.973 ± 0.037	0.963 ± 0.04	0.93 ± 0.063	0.929 ± 0.062
UniProt Q13885	1.03 ± 0.065	1.02 ± 0.049	0.986 ± 0.05	0.991 ± 0.054	0.948 ± 0.081	0.981 ± 0.055
UniProt Q13561 and related entries	0.995 ± 0.054	1.04 ± 0.028	0.964 ± 0.041	0.947 ± 0.072	0.92 ± 0.06	0.925 ± 0.06
CHAF1A (UniProt Q13111)	1.05 ± 0.02	1.1 ± 0.063	1.097 ± 0.0031	1.07 ± 0.045	1.05 ± 0.055	1.08 ± 0.076
NCOA6 (UniProt Q14686)	1 ± 0.043	1.06 ± 0.053	1.06 ± 0.037	0.975 ± 0.019	0.983 ± 0.029	0.992 ± 0.0062
PAK2 (UniProt Q13177)	1.01 ± 0.021	0.988 ± 0.0099	0.9836 ± 0.0067	0.9679 ± 0.0052	0.9826 ± 0.0029	0.967 ± 0.033
XRCC4 (UniProt Q13426)	1.1 ± 0.069	1.12 ± 0.061	1.15 ± 0.1	1.24 ± 0.043	1.24 ± 0.068	1.27 ± 0.1
PPID (UniProt Q08752)	1.035 ± 0.0079	1.02 ± 0.048	1.01 ± 0.018	0.999 ± 0.013	0.993 ± 0.021	0.98 ± 0.043
GOLGA3 (UniProt Q08378)	1.03 ± 0.05	1.06 ± 0.046	1.02 ± 0.038	0.983 ± 0.068	0.954 ± 0.043	0.989 ± 0.043
IK (UniProt Q13123)	1.06 ± 0.024	1.1 ± 0.06	1.1 ± 0.031	1.14 ± 0.026	1.156 ± 0.0063	1.26 ± 0.023
TRIM32 (UniProt Q13049)	1.019 ± 0.0082	0.981 ± 0.039	1.02 ± 0.027	0.982 ± 0.045	0.951 ± 0.022	1 ± 0.04
UniProt Q14642 and related entries	1.02 ± 0.012	0.9962 ± 0.0061	1 ± 0.04	0.971 ± 0.014	1.0206 ± 0.00092	0.981 ± 0.01
ZNF146 (UniProt Q15072)	0.932 ± 0.029	0.932 ± 0.021	0.862 ± 0.001	0.895 ± 0.009	0.892 ± 0.027	0.9394 ± 0.009

Target	NP40-soluble protein abundance (concentration: 1mM)	NP40-soluble protein abundance (concentration: 2mM)	NP40-soluble protein abundance (concentration: 4mM)	NP40-soluble protein abundance (concentration: 6mM)	NP40-soluble protein abundance (concentration: 8mM)	NP40-soluble protein abundance (concentration: 10mM)
UniProt Q15020 and related entries	1.02 ± 0.019	1.01 ± 0.016	1.03 ± 0.025	1.03 ± 0.014	1.03 ± 0.022	1.04 ± 0.04
URB2 (UniProt Q14146)	0.971 ± 0.018	0.9722 ± 0.0054	0.988 ± 0.013	1.05 ± 0.018	1.07 ± 0.023	1.1 ± 0.055
PPP2R5D (UniProt Q14738)	1.01 ± 0.024	1.04 ± 0.052	0.997 ± 0.026	0.975 ± 0.01	0.945 ± 0.015	0.971 ± 0.016
SMC1A (UniProt Q14683)	1.02 ± 0.036	1.05 ± 0.03	1.01 ± 0.015	1.03 ± 0.052	1 ± 0.035	1.04 ± 0.052
SNTB2 (UniProt Q13425)	1.001 ± 0.0065	0.975 ± 0.022	1.04 ± 0.023	0.991 ± 0.044	1.03 ± 0.022	1.01 ± 0.018
UniProt Q14142 and related entries	1 ± 0.022	1.02 ± 0.018	1.008 ± 0.0028	1.06 ± 0.028	1.02 ± 0.023	1.04 ± 0.015
BRD3 (UniProt Q15059)	1.08 ± 0.017	1.13 ± 0.082	1.15 ± 0.053	1.16 ± 0.086	1.19 ± 0.069	1.2 ± 0.086
UniProt Q13085 and related entries	0.981 ± 0.012	0.883 ± 0.11	0.928 ± 0.024	0.902 ± 0.027	0.91 ± 0.033	0.859 ± 0.049
UniProt Q15006	0.984 ± 0.018	0.9532 ± 0.0062	0.975 ± 0.044	0.989 ± 0.049	1.02 ± 0.028	1.02 ± 0.013
UniProt Q14CX7	1.01 ± 0.022	0.983 ± 0.064	1.02 ± 0.036	1.04 ± 0.053	1.06 ± 0.041	1.07 ± 0.057
UniProt Q13243	1.1 ± 0.056	1.2 ± 0.091	1.17 ± 0.07	1.19 ± 0.013	1.208 ± 0.0093	1.36 ± 0.12
UniProt Q15025 and related entries	0.973 ± 0.041	1.02 ± 0.035	0.944 ± 0.061	0.913 ± 0.056	0.922 ± 0.021	0.893 ± 0.034
HDAC1 (UniProt Q13547)	0.93 ± 0.014	0.914 ± 0.016	0.892 ± 0.022	0.942 ± 0.0047	0.919 ± 0.015	0.909 ± 0.028
UniProt Q13409-3|Q13409-2	0.952 ± 0.039	0.946 ± 0.07	0.923 ± 0.054	0.922 ± 0.075	0.904 ± 0.051	0.89 ± 0.06
UniProt Q12931 and related entries	0.97 ± 0.036	0.911 ± 0.031	0.956 ± 0.03	0.997 ± 0.06	0.997 ± 0.031	0.966 ± 0.037
UniProt Q15036 and related entries	1.03 ± 0.02	0.9855 ± 0.0063	1.02 ± 0.029	1 ± 0.07	1.01 ± 0.031	1.03 ± 0.048
UniProt Q13505 and related entries	0.965 ± 0.045	0.918 ± 0.066	0.9801 ± 0.0063	0.98 ± 0.073	1.02 ± 0.055	0.984 ± 0.05
CBX3 (UniProt Q13185)	0.978 ± 0.03	1.03 ± 0.023	0.984 ± 0.02	1.01 ± 0.024	1.03 ± 0.018	0.97 ± 0.024
UniProt Q13642-1|Q13642-4|Q13642-5	0.972 ± 0.041	0.983 ± 0.022	0.995 ± 0.025	0.996 ± 0.045	1.01 ± 0.039	0.969 ± 0.025
CBX2 (UniProt Q14781)	1 ± 0.03	1.01 ± 0.0083	1.01 ± 0.033	1.08 ± 0.04	1.05 ± 0.016	1.1 ± 0.053

Target	NP40-soluble protein abundance (concentration: 1mM)	NP40-soluble protein abundance (concentration: 2mM)	NP40-soluble protein abundance (concentration: 4mM)	NP40-soluble protein abundance (concentration: 6mM)	NP40-soluble protein abundance (concentration: 8mM)	NP40-soluble protein abundance (concentration: 10mM)
PDIA5 (UniProt Q14554)	1.01 ± 0.016	1.02 ± 0.023	1.04 ± 0.021	1.04 ± 0.013	1.06 ± 0.02	1.06 ± 0.011
PMPCA (UniProt Q10713)	0.985 ± 0.018	0.892 ± 0.11	0.971 ± 0.028	0.938 ± 0.018	0.98 ± 0.022	0.905 ± 0.019
UniProt Q15042	1.01 ± 0.013	1 ± 0.041	0.996 ± 0.02	0.94 ± 0.022	0.94 ± 0.0096	0.955 ± 0.014
ITPK1 (UniProt Q13572)	1.019 ± 0.0014	1.035 ± 0.0039	1.01 ± 0.014	0.992 ± 0.025	1.02 ± 0.04	0.9738 ± 0.0084
TRIM28 (UniProt Q13263)	1.02 ± 0.023	1.03 ± 0.049	1.02 ± 0.015	1.03 ± 0.015	1.02 ± 0.033	1.029 ± 0.0084
UniProt Q10567-3|Q10567-4	0.9767 ± 0.0069	0.9617 ± 0.0063	0.95 ± 0.026	1 ± 0.05	0.972 ± 0.029	1.01 ± 0.058
UniProt Q14247 and related entries	1.097 ± 0.0082	1.14 ± 0.061	1.16 ± 0.037	1.14 ± 0.039	1.14 ± 0.038	1.18 ± 0.055
UniProt Q09028 and related entries	1.02 ± 0.031	1.03 ± 0.05	1.03 ± 0.055	0.9856 ± 0.0053	1.01 ± 0.054	0.978 ± 0.011
UniProt Q13363 and related entries	0.985 ± 0.022	0.966 ± 0.041	0.961 ± 0.023	1.05 ± 0.058	1.03 ± 0.07	1.04 ± 0.042
TWF1 (UniProt Q12792)	0.943 ± 0.028	0.94 ± 0.015	0.9383 ± 0.0042	0.941 ± 0.028	0.9185 ± 0.009	0.954 ± 0.026
FKBP5 (UniProt Q13451)	1.004 ± 0.0095	0.983 ± 0.043	0.974 ± 0.019	0.958 ± 0.022	0.937 ± 0.017	0.934 ± 0.018
UniProt Q14677 and related entries	0.999 ± 0.026	1.03 ± 0.069	0.983 ± 0.052	1 ± 0.026	0.974 ± 0.03	1.03 ± 0.043
TARBP1 (UniProt Q13395)	0.978 ± 0.037	0.888 ± 0.039	0.962 ± 0.025	0.953 ± 0.033	0.98 ± 0.03	0.95 ± 0.018
LGALS3BP (UniProt Q08380)	0.952 ± 0.062	0.9536 ± 0.0087	0.897 ± 0.015	0.875 ± 0.032	0.86 ± 0.027	0.9 ± 0.039
UniProt Q12770 and related entries	1 ± 0.049	0.985 ± 0.03	0.9864 ± 0.0095	0.9718 ± 0.0087	0.999 ± 0.0077	0.981 ± 0.024
UniProt Q13416	1.01 ± 0.039	1.07 ± 0.021	1.06 ± 0.033	1 ± 0.036	0.982 ± 0.036	1.04 ± 0.042
MORF4L2 (UniProt Q15014)	1.03 ± 0.014	1.091 ± 0.0075	1.07 ± 0.057	1.05 ± 0.036	1.07 ± 0.059	1.08 ± 0.012
TUBB3 (UniProt Q13509)	1.06 ± 0.015	1.03 ± 0.0055	1.0269 ± 0.00018	0.962 ± 0.021	0.987 ± 0.03	1.02 ± 0.018
IFIT5 (UniProt Q13325)	0.967 ± 0.044	0.975 ± 0.054	0.962 ± 0.057	0.995 ± 0.056	1.01 ± 0.071	0.995 ± 0.044
UniProt Q13472 and related entries	0.995 ± 0.018	0.969 ± 0.039	0.982 ± 0.017	1.01 ± 0.036	0.999 ± 0.019	1.01 ± 0.076

Random excerpt: 3 entries already listed.
Target	NP40-soluble protein abundance (concentration: 1mM)	NP40-soluble protein abundance (concentration: 2mM)	NP40-soluble protein abundance (concentration: 4mM)	NP40-soluble protein abundance (concentration: 6mM)	NP40-soluble protein abundance (concentration: 8mM)	NP40-soluble protein abundance (concentration: 10mM)
XRCC4 (UniProt Q13426)	1.1 ± 0.069	1.12 ± 0.061	1.15 ± 0.1	1.24 ± 0.043	1.24 ± 0.068	1.27 ± 0.1
CBX3 (UniProt Q13185)	0.978 ± 0.03	1.03 ± 0.023	0.984 ± 0.02	1.01 ± 0.024	1.03 ± 0.018	0.97 ± 0.024
UniProt Q13085 and related entries	0.981 ± 0.012	0.883 ± 0.11	0.928 ± 0.024	0.902 ± 0.027	0.91 ± 0.033	0.859 ± 0.049
